For at least one compound, name, drawing or mass did not settle the structure.
Experiments:
[1] = test system: Acinetobacter baumannii (AB), ATCC BAA747; experiment: Bacterial susceptibility (time-kill) studies with viability plating, model fit; assay type: cell-based
[2] = test system: Acinetobacter baumannii (AB), ATCC BAA747; experiment: Optical instrument (BacterioScan 216Dx) susceptibility studies, model fit; assay type: cell-based
[3] = test system: A. baumannii 1261 (clinical isolate); experiment: Clinical isolate exposed to antibiotic concentration combinations in 4×4 array, tracked over 24 h on 216Dx; assay type: cell-based, Acinetobacter baumannii; settings: clinical isolate of A. baumannii (multidrug resistant)
Procedure: FIG. 3. A. baumannii 1261 was exposed to 16 different concentration combinations of levofloxacin (L) and amikacin (A). Each sequence of points represents the time course of the bacterial population (baseline inoculum approximately 2-5×10^5 CFU/ml) exposed to one levofloxacin/amikacin concentration combination (e.g., levofloxacin 20 mg/l+amikacin 30 mg/ is shown in hollow squares). Bacteria exposed to drugs with no activity produce profiles that superimpose on those from placebo controls; antimicrobial activity manifests as a delay or absence of growth.
Ineffective antibiotics may have acceptable activity when combined. A clinical isolate of A. baumannii was exposed to different antibiotic concentration combinations in a 4×4 array, and the bacterial burden was tracked over 24 h using the prototype technical platform 216Dx. While the isolate is resistant to levofloxacin, amikacin and cefepime (multidrug resistant), bacterial growth was delayed in selected combinations (FIG. 3) and the profiles were reasonably captured by the mathematical modeling framework (1) shown above (FIG. 1, right).

[4] = Time Kill 2 MIC, Instrument 6 h
[5] = Time Kill 2 MIC, Instrument 9 h
[6] = Time Kill 2 MIC, Instrument 12 h
[7] = Time Kill 2 MIC, Instrument 24 h
[8] = Time Kill 2 MIC, Instrument 48 h
[9] = Time Kill 8 MIC, Instrument 6 h
[10] = Time Kill 8 MIC, Instrument 9 h
[11] = Time Kill 8 MIC, Instrument 12 h
[12] = Time Kill 8 MIC, Instrument 24 h
[13] = Time Kill 8 MIC, Instrument 48 h
[14] = Time Kill ½ MIC, Instrument 6 h
[15] = Time Kill ½ MIC, Instrument 9 h
[16] = Time Kill ½ MIC, Instrument 12 h
[17] = Time Kill ½ MIC, Instrument 24 h
[18] = Time Kill ½ MIC, Instrument 48 h

C[C@H]1COc2c(N3CCN(C)CC3)c(F)cc3c(=O)c(C(=O)O)cn1c23 [LVX, Levofloxacin]
α (parameter estimate) ([1]; Time Kill 2 MIC, Plating 1): 1.6 ± 0.1
μ0 (kill rate average, parameter estimate) ([1]; Time Kill 2 MIC, Plating 1): 15 ± 0.6
σ0 (kill rate spread, parameter estimate) ([1]; Time Kill 2 MIC, Plating 1): 4.6 ± 0.1
α (parameter estimate) ([1]; Time Kill 2 MIC, Plating 2): 1.5 ± 0.11
μ0 (kill rate average, parameter estimate) ([1]; Time Kill 2 MIC, Plating 2): 11 ± 0.38
σ0 (kill rate spread, parameter estimate) ([1]; Time Kill 2 MIC, Plating 2): 3.6 ± 0.10
α (parameter estimate) ([1]; Time Kill 2 MIC, Plating 3): 1.5 ± 0.12
μ0 (kill rate average, parameter estimate) ([1]; Time Kill 2 MIC, Plating 3): 13 ± 0.53
σ0 (kill rate spread, parameter estimate) ([1]; Time Kill 2 MIC, Plating 3): 4.0 ± 0.12
α (parameter estimate) ([1]; Time Kill 8 MIC, Plating 3): 1.3 ± 0.10
μ0 (kill rate average, parameter estimate) ([1]; Time Kill 8 MIC, Plating 3): 16 ± 0.62
σ0 (kill rate spread, parameter estimate) ([1]; Time Kill 8 MIC, Plating 3): 4.4 ± 0.12
α (parameter estimate) ([1]; Time Kill ½ MIC, Plating 1): 1.4 ± 0.1
μ0 (kill rate average, parameter estimate) ([1]; Time Kill ½ MIC, Plating 1): 8.1 ± 0.3
σ0 (kill rate spread, parameter estimate) ([1]; Time Kill ½ MIC, Plating 1): 3.1 ± 0.1
α (parameter estimate) ([1]; Time Kill ½ MIC, Plating 2): 2.1 ± 0.1
μ0 (kill rate average, parameter estimate) ([1]; Time Kill ½ MIC, Plating 2): 12 ± 0.4
σ0 (kill rate spread, parameter estimate) ([1]; Time Kill ½ MIC, Plating 2): 4.5 ± 0.1
α (parameter estimate) ([1]; Time Kill ½ MIC, Plating 3): 0.24 ± 0.9
μ0 (kill rate average, parameter estimate) ([1]; Time Kill ½ MIC, Plating 3): 4.0 ± 0.7
σ0 (kill rate spread, parameter estimate) ([1]; Time Kill ½ MIC, Plating 3): 0.74 ± 0.36
Nlive curve produced by the model (outcome for the bacterial population) ([2]; 2×MIC, fit over 6 hours (FIG. 13)): complete eradication of the bacterial population
Nlive curve produced by the model (outcome for the bacterial population) ([2]; 2×MIC, fit over 9 hours (FIG. 12)): greater inhibition to bacteria
Nlive curve produced by the model (outcome for the bacterial population) ([2]; 8×MIC, fit of optical density measurements over 12 hours (FIG. 11)): complete eradication of bacteria
α (parameter estimate) [2, 4]: 2.6 ± 0.3
μ0 (kill rate average, parameter estimate) [2, 4]: 15.5 ± 0.3
σ0 (kill rate spread, parameter estimate) [2, 4]: 6.1 ± 0.15
α (parameter estimate) [2, 5]: 2.1 ± 0.2
μ0 (kill rate average, parameter estimate) [2, 5]: 15 ± 0.1
σ0 (kill rate spread, parameter estimate) [2, 5]: 5.5 ± 0.02
α (parameter estimate) [2, 6]: 3.2 ± 0.01
μ0 (kill rate average, parameter estimate) [2, 6]: 21 ± 0.03
σ0 (kill rate spread, parameter estimate) [2, 6]: 8.4 ± 0.01
α (parameter estimate) [2, 7]: 4.3 ± 0.01
μ0 (kill rate average, parameter estimate) [2, 7]: 22 ± 0.06
σ0 (kill rate spread, parameter estimate) [2, 7]: 9.6 ± 0.01
α (parameter estimate) [2, 8]: 2.5 ± 0.04
μ0 (kill rate average, parameter estimate) [2, 8]: 16 ± 0.1
σ0 (kill rate spread, parameter estimate) [2, 8]: 6.1 ± 0.03
α (parameter estimate) [2, 9]: 3.3 ± 0.2
μ0 (kill rate average, parameter estimate) [2, 9]: 33 ± 0.3
σ0 (kill rate spread, parameter estimate) [2, 9]: 10.4 ± 0.1
α (parameter estimate) [2, 10]: 2.4 ± 0.04
μ0 (kill rate average, parameter estimate) [2, 10]: 26 ± 0.06
σ0 (kill rate spread, parameter estimate) [2, 10]: 7.7 ± 0.02
α (parameter estimate) [2, 11]: 3.2 ± 0.06
μ0 (kill rate average, parameter estimate) [2, 11]: 35 ± 0.1
σ0 (kill rate spread, parameter estimate) [2, 11]: 10.5 ± 0.02
α (parameter estimate) [2, 12]: 2.7 ± 0.03
μ0 (kill rate average, parameter estimate) [2, 12]: 28 ± 0.2
σ0 (kill rate spread, parameter estimate) [2, 12]: 8.6 ± 0.04
α (parameter estimate) [2, 13]: 3.0 ± 0.01
μ0 (kill rate average, parameter estimate) [2, 13]: 34 ± 0.05
σ0 (kill rate spread, parameter estimate) [2, 13]: 9.9 ± 0.01
α (parameter estimate) [2, 14]: 1.2 ± 0.1
μ0 (kill rate average, parameter estimate) [2, 14]: 5 ± 0.2
σ0 (kill rate spread, parameter estimate) [2, 14]: 2.5 ± 0.1
α (parameter estimate) [2, 15]: 0.76 ± 0.02
μ0 (kill rate average, parameter estimate) [2, 15]: 4.2 ± 0.04
σ0 (kill rate spread, parameter estimate) [2, 15]: 1.8 ± 0.02
α (parameter estimate) [2, 16]: 3.3 ± 0.01
μ0 (kill rate average, parameter estimate) [2, 16]: 11 ± 0.03
σ0 (kill rate spread, parameter estimate) [2, 16]: 6 ± 0.01
α (parameter estimate) [2, 17]: 10.4 ± 0.16
μ0 (kill rate average, parameter estimate) [2, 17]: 12 ± 0.16
σ0 (kill rate spread, parameter estimate) [2, 17]: 10.8 ± 0.1
α (parameter estimate) [2, 18]: 1.8 ± 0.24
μ0 (kill rate average, parameter estimate) [2, 18]: 10 ± 0.4
σ0 (kill rate spread, parameter estimate) [2, 18]: 4.1 ± 0.14
susceptibility phenotype of the isolate [3]: resistant

— US20230044633A1, “OPTICAL BASED METHODS FOR DETERMINING ANTIMICROBIAL DOSING REGIMENS” (University of Houston System, priority 2019, published 2023)
